## Primary screen of a compound library

Results are given as percent effect.
How 0% and 100% were set is not recorded. Most values in the screen are low, and negative values occur.
The compounds are a random part of those screened.

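Whole-parasite assay of Trypanosoma brucei over 72 hours; the read-out is not stated. Tested at 30 µM. Higher reads as stronger inhibition (inferred: compounds with an IC50 in retests scored well above the rest). Values scatter widely below zero; nearly all retest evidence comes from the higher of the two concentrations used. Size under these conditions: about 64,000 compounds, about 940 of them at 50% or above in at least one test.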

CCc1ncc2c(n1)CN(c1nnc(C)c(C)c1C#N)CC2 gave 2.716%.
CC(NC(=O)NCCCN1CCCC1=O)c1ccc(Cl)s1 (stereo not drawn) gave -25.72%.
Cn1ncc2c1C(COCC1CC1)N(Cc1ccoc1)CC2.O=C(O)C(F)(F)F.O=C(O)C(F)(F)F (stereo not drawn) gave -32.41%.
CN1CCN(Cc2ccccc2CNC(=O)c2ccc(Br)cc2F)CC1 gave -21.38%.
Cc1cnn(CCNCc2csc(COc3ccccc3)n2)c1 gave 54.15%.
CCOC(=O)CCn1cnc2onc(-c3ccc(OC)cc3)c2c1=O gave -27.94%.
Cn1ccc(C(=O)N2CCN(CC(O)C(C)(C)C)CC2)cc1=O (stereo not drawn) gave -16.78%.
N#Cc1cc(NC(=O)C2CC=CC2)ccc1N1CCC(O)CC1 gave 8.934%.
Cc1ccc(NC(=O)NCCCc2n[nH]c(N)c2C#N)cc1 gave -41.37%.
Cl.Cl.O=C(NCc1cncc2c1CCN(CC1CCOC1)C2)c1ccco1 (stereo not drawn) gave -20.56%.
CCNC(=O)NC1CCN(c2ccc(S(=O)(=O)CC)cc2)CC1 gave -16.81%.
COc1ccc(CN2CCC3(CC2)NC(=O)CC3c2ccncc2)cc1.O=C(O)C(F)(F)F.O=C(O)C(F)(F)F (stereo not drawn) gave -24.32%.
CCCc1nc(C)c(C(=O)NCC2CCN(C3CC3)C2)s1 (stereo not drawn) gave -27.79%.
O=C(O)C(F)(F)F.O=C(O)C(F)(F)F.O=C(O)C(F)(F)F.[H][C@@]12C[C@H](C(=O)NCCN(C)C)N(C)[C@]1([H])CN(c1ncccn1)C2 gave -2.155%.
COc1ccc(C(NCc2cccc(C#N)c2)C2CC2)cc1 (stereo not drawn) gave -5.229%.
CC(C)(C)c1cn2nc(N3CCCC3Cn3cncn3)sc2n1 (stereo not drawn) gave -11.91%.
CN1CCC(NC(=O)NCCNc2ccccn2)CC1 gave 15.08%.
CC(C)n1cnc2c(N3CCCC3)nc(C3CCNCC3)cc21.Cl.Cl gave 15.66%.
[H][C@@]12CCN(Cc3cnn(C)c3)C[C@@]1([H])O[C@H](c1nc(C)c(C)s1)C2 gave -35.55%.
c1ccc(C(CC2CN(Cc3ncc[nH]3)CCO2)c2ccccc2)cc1 (stereo not drawn) gave -12.7%.
COc1cc(-c2cc(N)ncn2)cc(OC)c1OC gave -13.89%.
CCS(=O)(=O)N1CCCC2(CCCN2Cc2cccc(F)c2)C1.O=C(O)C(F)(F)F (stereo not drawn) gave -82.26%.
Cc1ncc2c(n1)CN(Cc1nc(-c3cccs3)no1)CC2 gave 16.35%.
CN1CC[C@H](N(Cc2ccccc2)Cc2ccccc2)C[C@H](O)C1 gave 67.88%.
Cc1csc2c(=O)n(CCSc3cnn[nH]3)cnc12 gave -9.243%.
Cc1cc(C)c2[nH]c(=O)c(CN3CCCC(O)(CO)C3)cc2c1 (stereo not drawn) gave -15.9%.
CC(NC(=O)CCc1cccc(OC2CCCC2)c1)c1nncn1C (stereo not drawn) gave 3.721%.
CCc1nnc(CS(=O)(=O)c2ccc(C)cc2)n1C gave 49.22%.
CCCC(O)CN1CC(C)(C)CN(C(=O)c2ccc(SC)cc2)CC1=O (stereo not drawn) gave -7.224%.
CC(=O)NCCNC(=O)CNC1CCCN(c2ccc(C)nn2)C1 (stereo not drawn) gave -18.73%.
CC(C)CNC(=O)c1c(-n2cnnn2)sc2c1CCC2 gave 26.84%.
O=C(O)C(F)(F)F.[H][C@@]12CCN(CCc3ccccc3)C[C@]1([H])[C@@H](CNS(C)(=O)=O)OC2 gave -37.97%.
CN(C(=O)c1ccnn1C)[C@@H]1CCC[C@@H](Oc2ccccc2)[C@@H]1O gave -9.472%.
CCOCC(=O)N1CCC2(CC1)COCCN2CCOC.O=C(O)C(F)(F)F gave -31.73%.
Cc1cnn(CCNCC(=O)N(C)C(C)c2ccccc2)c1 (stereo not drawn) gave -26.09%.
CCC1c2ccc(C)n2CCN1C(=O)Cn1cnc2sc(C)cc2c1=O (stereo not drawn) gave 55.61%.
COCC(=O)N1CCCC1c1cccc(C)c1C (stereo not drawn) gave -23.51%.
Cc1ccc(-c2nc3cc(S(=O)(=O)N4CCCC4)ccc3n2C)o1 gave -16.03%.
CCN(CC)CCn1ccnc1-c1cccc(C#N)c1 gave 13.03%.
CCOCC(=O)N1CCC(CSCc2ccco2)CC1 gave -31.16%.
COCC1CC2(CCN(c3cccc(C)n3)CC2)CN1C(C)C.O=C(O)C(F)(F)F.O=C(O)C(F)(F)F (stereo not drawn) gave -2.243%.
COc1cccc(SCC(=O)N2CCC(N3CCCC(O)C3)CC2)c1 (stereo not drawn) gave -16.38%.
N#CCCCn1nnc(C2(NC(=O)c3ccccc3)CCCC2)n1 gave -13.09%.
O=C(O)C(F)(F)F.[H][C@@]12CCN(CC3CC3)[C@@]1([H])CCN2C(=O)c1ccc(F)cc1 gave -16.62%.
CN(CC(=O)NCCc1cc2ccccc2o1)S(C)(=O)=O gave -52.34%.
CCCn1cnnc1CNC1CCSC1 (stereo not drawn) gave -20.05%.
CC(C)OCc1cccc(NC(=O)N(C)Cc2ncnn2C)c1 gave -16.71%.
CCN1CCC(CC(=O)N(C)C(C)c2cncs2)CC1 (stereo not drawn) gave -32.41%.
Cc1n[nH]c(C)c1NC(=O)CN1CCCC1c1noc(C(C)C)n1 (stereo not drawn) gave -40.45%.
COc1cccc(CCC2CCCN(C(C)=O)C2)c1 (stereo not drawn) gave 6.192%.
CC(=O)NCCNc1nc(-c2ccccn2)nc2c1c(C)nn2C gave -77.61%.
CCOCCOC(C)C(=O)Nc1ccc2[nH]c(C)cc2c1 (stereo not drawn) gave -6.642%.
CN(C)C[C@@H]1CN(C(=O)c2cc(F)ccc2F)C[C@@H]1CO gave -24.39%.
Cl.O=C(C1CCCCC1)N1CCC2(CC1)CNCc1ccccc12 gave -28.26%.
Cc1ccc(CN2CCN(C(=O)c3ccccc3O)C(C)C2=O)cc1 (stereo not drawn) gave -2.188%.
COCCc1noc(CNC(C)(CO)C2CCCCC2)n1 (stereo not drawn) gave -23.46%.

The last 4 entries again:

{"smiles": "CN(C)C[C@@H]1CN(C(=O)c2cc(F)ccc2F)C[C@@H]1CO", "effect": -24.39}
{"smiles": "Cl.O=C(C1CCCCC1)N1CCC2(CC1)CNCc1ccccc12", "effect": -28.26}
{"smiles": "Cc1ccc(CN2CCN(C(=O)c3ccccc3O)C(C)C2=O)cc1", "stereo": "stereo not drawn", "effect": -2.188}
{"smiles": "COCCc1noc(CNC(C)(CO)C2CCCCC2)n1", "stereo": "stereo not drawn", "effect": -23.46}

From ChEMBL document CHEMBL3988442, “University of Dundee, Small-Polar-MMV Screening Library” (2021).